This is one part of the list.
Key:
Test in all cases: log2 fold change, soluble protein after heating vs DMSO (PISA); higher = thermal stabilisation; K562 cells, 10 uM, 30 min; active = over 0.2 and 3.5 SD of the protein, either way, in both replicates (recomputed)
[1] = compound: Cc1ccc(NC(=O)c2ccc(CN3CC[C@H](N(C)C)C3)c(C(F)(F)F)c2)cc1Nc1nccc(-c2cncnc2)n1 [bafetinib]
Summary of the method: (§1)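 K562 cells at 2×10^6 cells/mL were given 10 μM compound for 30 min. Aliquots then went through 3 min of heating across 48°C-58°C, were pooled, and were extracted in PBS with 0.5% NP-40 at 4°C, and the supernatant after 21,000xg for 90 min was quantified by TMTpro 16plex LC-MS/MS with channel sums equalised. Thermal stability relative to control samples, from duplicates, is given as log2 fold change.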

[2] = compound: Cc1cccc(CC(=O)N2CCc3c2ccc(-c2cn(C)c4ncnc(N)c24)c3F)n1
Summary of the method: as §1

[3] = compound: Cc1cn(-c2cc(NC(=O)c3ccc(C)c(Nc4nccc(-c5cccnc5)n4)c3)cc(C(F)(F)F)c2)cn1 [nilotinib]
Summary of the method: as §1

[4] = compound: Cc1nc(Nc2n[nH]c3c2CN(C(=O)N[C@H](CN(C)C)c2ccccc2)C3(C)C)c2sccc2n1
Summary of the method: as §1

[5] = compound: Cc1ncc(-c2ccnc(Nc3ccc(S(C)(=O)=O)cc3)n2)n1C(C)C
Summary of the method: as §1

[6] = compound: Cn1cc(-c2ccc3c(c2)CCN3C(=O)Cc2cccc(C(F)(F)F)c2)c2c(N)ncnc21
Summary of the method: as §1

[7] = compound: Cn1cc(-c2ccc3nnc(C(F)(F)c4ccc5ncccc5c4)n3n2)cn1
Summary of the method: as §1

[8] = compound: FC(F)(F)c1ccc(/C=C/c2nc(COc3ccc(CCCCn4ccnn4)cc3)co2)cc1 [mubritinib]
Summary of the method: as §1

[9] = compound: NC1(c2ccc(-c3nc4ccn5c(=O)[nH]nc5c4cc3-c3ccccc3)cc2)CCC1
Summary of the method: as §1

[10] = compound: O=C(CCCCCCC(=O)Nc1ccccc1)NO [vorinostat]
Summary of the method: as §1

[11] = compound: O=C(O)c1ccc2c(c1)nc(Nc1cccc(Cl)c1)c1ccncc12 [silmitasertib]
Summary of the method: as §1

[12] = compound: Cn1cncc1[C@@](N)(c1ccc(Cl)cc1)c1ccc2c(c1)c(-c1cccc(Cl)c1)cc(=O)n2C [tipifarnib]
Summary of the method: as §1

[13] = compound: NCC(=O)Nc1ccc(-n2nc(C(F)(F)F)cc2-c2ccc3c(ccc4ccccc43)c2)cc1
Summary of the method: as §1

[14] = compound: O=C(CCCCCCNC(=O)c1cnc(N(c2ccccc2)c2ccccc2Cl)nc1)NO [citarinostat]
Summary of the method: as §1

[15] = compound: O=C1NC(=O)C(c2cnc3ccccn23)=C1c1cn2c3c(cc(F)cc13)CN(C(=O)N1CCCCC1)CC2
Summary of the method: as §1

[16] = compound: c1cc(OCCN2CCCCC2)cc(-c2n[nH]c3ccc(-c4nnc[nH]4)cc23)c1
Summary of the method: as §1

[17] = compound: Cc1nc(Nc2ncc(C(=O)Nc3c(C)cccc3Cl)s2)cc(N2CCN(CCO)CC2)n1 [dasatinib]
Summary of the method: as §1

[18] = compound: NC(=O)Nc1cc(-c2cccc(F)c2)sc1C(=O)N[C@H]1CCCNC1
Summary of the method: as §1

[19] = compound: NC(=O)c1cnc(N[C@@H]2CCCC[C@@H]2N)nc1Nc1cccc(-n2nccn2)c1
Summary of the method: as §1

[20] = compound: Nc1ccccc1NC(=O)c1ccc(CNC(=O)OCc2cccnc2)cc1 [entinostat]
Summary of the method: as §1

Row | Target | log2 fold change [1] | log2 fold change [2] | log2 fold change [3] | log2 fold change [4] | log2 fold change [5] | log2 fold change [6] | log2 fold change [7] | log2 fold change [8] | log2 fold change [9] | log2 fold change [10] | log2 fold change [11] | log2 fold change [12] | log2 fold change [13] | log2 fold change [14] | log2 fold change [15] | log2 fold change [16] | log2 fold change [17] | log2 fold change [18] | log2 fold change [19] | log2 fold change [20]
1 | PPP1R3D (UniProt O95685) | inactive: -0.083 | inactive: 0.108 | inactive: -0.068 | inactive: 0.09 | inactive: -0.112 | inactive: -0.085 | inactive: 0.032 | inactive: 0.192 | inactive: 0.062 | inactive: -0.04 | inactive: 0.022 | – | – | – | – | – | – | – | – | –
2 | PPP1R13L (UniProt Q8WUF5) | inactive: 0.127 | inactive: -0.036 | inactive: -0.135 | inactive: 0.009 | inactive: -0.112 | – | – | – | – | inactive: -0.044 | – | inactive: -0.083 | inactive: 0.034 | inactive: -0.183 | inactive: -0.001 | inactive: -0.158 | – | – | – | –
3 | PRKAG1 isoform 3 (UniProt P54619) | inactive: -0.098 | inactive: 0.001 | inactive: -0.079 | inactive: -0.189 | inactive: -0.01 | inactive: 0.001 | inactive: 0.022 | inactive: -0.052 | inactive: -0.069 | inactive: 0.071 | inactive: 0.016 | inactive: 0.007 | inactive: -0.045 | inactive: 0.04 | inactive: -0.042 | inactive: -0.091 | inactive: -0.056 | inactive: -0.105 | inactive: -0.033 | inactive: 0.017
4 | PPOX (UniProt P50336) | inactive: -0.031 | inactive: -0.013 | inactive: 0.494 | inactive: 0.027 | inactive: -0.015 | inactive: 0.192 | inactive: 0.086 | inactive: 0 | inactive: -0.182 | inactive: 0.003 | inactive: 0.158 | inactive: 0.08 | inactive: -0.009 | inactive: 0.02 | inactive: 0.094 | inactive: 0.018 | inactive: 0.208 | inactive: -0.042 | inactive: -0.228 | inactive: 0.04
5 | PRPF19 (UniProt Q9UMS4) | inactive: -0.062 | inactive: -0.049 | inactive: -0.004 | inactive: 0.102 | inactive: 0.082 | inactive: -0.005 | inactive: -0.001 | inactive: 0.019 | inactive: -0.01 | inactive: -0.097 | inactive: 0.007 | inactive: 0.008 | inactive: 0.014 | inactive: 0.007 | inactive: 0.003 | inactive: -0.027 | inactive: 0.086 | inactive: 0.008 | inactive: 0 | inactive: -0.02
6 | PRKCE (UniProt Q02156) | inactive: 0.001 | inactive: 0.02 | inactive: -0.024 | active: -0.335 | inactive: 0.004 | inactive: 0.051 | – | inactive: 0.052 | inactive: -0.177 | inactive: 0.107 | inactive: -0.016 | inactive: -0.049 | inactive: -0.078 | inactive: -0.019 | inactive: -0.018 | inactive: -0.055 | inactive: -0.118 | inactive: -0.068 | inactive: -0.084 | inactive: 0.01
7 | PRKD2 isoform 3 (UniProt Q9BZL6) | inactive: -0.16 | inactive: 0.045 | inactive: -0.204 | active: -0.698 | inactive: -0.145 | inactive: 0.057 | inactive: 0.045 | inactive: 0.099 | inactive: -0.074 | inactive: 0.186 | inactive: 0.047 | inactive: -0.123 | inactive: 0 | – | inactive: -0.014 | – | inactive: -0.139 | active: -0.515 | inactive: -0.217 | inactive: 0.331
8 | PRNP (UniProt P04156) | inactive: 0.101 | inactive: -0.041 | – | – | – | – | – | inactive: -0.032 | inactive: 0.086 | inactive: -0.018 | inactive: 0.019 | – | – | – | – | – | – | inactive: 0.06 | – | inactive: -0.005
9 | PPP1R12C (UniProt Q9BZL4) | inactive: -0.085 | active: 0.612 | inactive: 0.069 | inactive: -0.26 | inactive: -0.213 | – | inactive: -0.018 | inactive: -0.118 | inactive: -0.031 | inactive: 0.487 | inactive: 0.122 | inactive: -0.219 | inactive: -0.022 | inactive: -0.008 | inactive: -0.073 | inactive: -0.278 | inactive: -0.065 | inactive: -0.151 | – | inactive: 0.072
10 | PPP1R21 (UniProt Q6ZMI0) | inactive: -0.177 | inactive: 0.08 | inactive: -0.183 | inactive: 0.022 | inactive: -0.013 | inactive: -0.05 | – | – | – | inactive: 0.043 | – | inactive: -0.124 | inactive: -0.061 | – | inactive: 0.019 | – | inactive: -0.282 | inactive: -0.046 | inactive: -0.056 | inactive: 0.094
11 | PRKDC (UniProt P78527) | inactive: -0.02 | inactive: 0.035 | inactive: -0.035 | inactive: -0.017 | inactive: -0.004 | inactive: 0.036 | inactive: 0 | inactive: 0.033 | inactive: -0.118 | inactive: 0.028 | inactive: -0.017 | inactive: -0.044 | inactive: -0.031 | inactive: 0.067 | inactive: -0.055 | inactive: -0.008 | – | inactive: -0.007 | inactive: -0.024 | inactive: 0.029
12 | PRKAR1B (UniProt P31321) | inactive: 0.132 | inactive: -0.015 | inactive: 0.062 | inactive: 0.012 | inactive: 0.097 | inactive: 0.018 | inactive: 0.126 | inactive: -0.286 | inactive: 0.129 | inactive: -0.031 | inactive: 0.07 | inactive: 0.147 | inactive: 0.045 | inactive: 0 | inactive: 0.024 | inactive: -0.142 | inactive: -0.013 | inactive: 0.001 | inactive: 0.085 | inactive: -0.015
13 | PPP2R5B (UniProt Q15173) | inactive: 0.006 | inactive: -0.057 | inactive: -0.187 | inactive: 0.095 | inactive: -0.042 | – | – | inactive: -0.023 | inactive: -0.167 | inactive: 0.112 | inactive: 0 | inactive: -0.067 | inactive: -0.006 | inactive: 0.122 | – | inactive: 0.127 | inactive: -0.047 | – | inactive: 0.017 | –

From the supplement of paper PMC10849652
